For assay [1], the target named is T1, recombinant 6x-His-tagged p32 protein (gC1qR/p32) (UniProt Q07021 74-282).
T1 construct: Predominantly (>97%) a trimer by sedimentation velocity; also called gC1q/p32 receptor; recombinant p32
T1 sequence (looked up): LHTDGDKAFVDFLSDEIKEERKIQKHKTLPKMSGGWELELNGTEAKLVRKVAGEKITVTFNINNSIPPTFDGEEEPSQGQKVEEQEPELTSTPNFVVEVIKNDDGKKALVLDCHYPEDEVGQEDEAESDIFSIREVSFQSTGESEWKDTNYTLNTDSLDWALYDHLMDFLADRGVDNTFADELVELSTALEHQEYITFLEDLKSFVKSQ
Nature of the assay: T7 phage clone binding to p32-coated magnetic beads.

Assay [2] deals with T2, ligand-binding b1b2 domain of the cell and tissue penetration receptor NRP-1 (UniProt O14786).
T2 sequence (looked up): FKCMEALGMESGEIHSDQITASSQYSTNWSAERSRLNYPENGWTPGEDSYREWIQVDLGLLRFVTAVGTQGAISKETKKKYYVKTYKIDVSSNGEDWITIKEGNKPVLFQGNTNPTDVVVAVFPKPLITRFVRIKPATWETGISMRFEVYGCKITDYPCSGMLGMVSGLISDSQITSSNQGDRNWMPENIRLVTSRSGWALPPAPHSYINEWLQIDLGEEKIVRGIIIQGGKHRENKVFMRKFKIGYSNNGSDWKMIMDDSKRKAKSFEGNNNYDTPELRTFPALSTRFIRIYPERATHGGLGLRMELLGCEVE
The assay is described as follows: T7 phage clone binding to immobilized NRP-1 b1b2 domain (FIG. 3).

Assay [3] has as its target T1, recombinant 6x-His-tagged p32 protein …. The assay is described as follows: T7 phage clone binding to immobilized p32 (FIG. 3).
For assay [4] the target is unchanged. The assay is described as follows: T7 phage on p32-coated magnetic beads, before trypsin treatment (FIG. 9).
Assay [5] addresses T3, NRP-1 (control protein in the fluorescence polarization assay) (UniProt O14786).
T3 sequence (looked up): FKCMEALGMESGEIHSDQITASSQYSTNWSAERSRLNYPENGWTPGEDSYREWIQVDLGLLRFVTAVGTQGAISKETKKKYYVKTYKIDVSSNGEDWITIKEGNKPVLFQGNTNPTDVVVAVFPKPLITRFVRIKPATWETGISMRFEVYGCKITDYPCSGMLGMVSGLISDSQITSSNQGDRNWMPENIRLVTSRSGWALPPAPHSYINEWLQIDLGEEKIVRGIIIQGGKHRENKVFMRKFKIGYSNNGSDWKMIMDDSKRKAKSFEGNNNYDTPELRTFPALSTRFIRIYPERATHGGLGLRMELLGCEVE
The assay is described as follows: fluorescence polarization assay (FIG. 4B). On the technique in general: In fluorescence polarisation assays a small probe gives low polarisation when free and higher when bound to something large.

Assay [6] deals with T1, recombinant 6x-His-tagged p32 protein …. The assay is described as follows: T7 phage binding to immobilized p32.
For assay [7] the target is unchanged. Nature of the assay: phage clones on p32-coated magnetic microbeads (FIG. 10).

No constants are given. Whether binding was seen depends on the method and setting. Some results given as binding are weak or reduced against the parent protein; the word gives no strength.

As for RKRGGRS (also called RGXRS-displaying phage) [T7 phage displaying RKRGGRS (SEQ ID NO: 166)], the binding entry in assay [1] is “binds”.
Turning to CQRGTRSRC [T7 phage displaying … (SEQ ID NO: 182)], in assay [1], the binding result was “binds”.
On the same count and under the same terms, to CKRGNRSVC [T7 phage displaying … (SEQ ID NO: 178)] belongs “binds”.

B1: T7 phage displaying GRGGRSRKLAAALE (SEQ ID NO: 161) (peptide)
peptide: GRGGRSRKLAAALE
notes: the C-terminal KLAAALE element is encoded by the phage genomic DNA; also called RGXRS-displaying phage
B1: the binding result in assay [1] is on record as “binds”.

B2: T7 phage displaying SRLGRMR (SEQ ID NO: 193) (peptide)
peptide: SRLGRMR
notes: also called phage clone selected on NRP-1 b1b2 domain
As for B2, the binding result in assay [2] is “binds”.
For the molecule CKRGARSTC [T7 phage displaying the TT1 peptide … (SEQ ID NO: 3)], the binding result in assay [1], in assay [3] and in assay [4] was “binds” in each case.
As for CKRGSRSSC [T7 phage displaying … (SEQ ID NO: 181)], in assay [1], the binding result was “binds”.
On the same count and under the same terms, next, CVRGGRARC [T7 phage displaying … (SEQ ID NO: 183)]: “binds”.

B3: T7 phage displaying RMRRIDR (SEQ ID NO: 190) (peptide)
peptide: RMRRIDR
notes: as for B2
For B3, in assay [2], the binding result is “binds”.
Consider CARGARTKC [T7 phage displaying … (SEQ ID NO: 176)], for which the binding result in assay [1] is given as “binds”.
As to RPARPAR [synthetic RPARPAR peptide (SEQ ID NO: 14)], the binding entry in assay [5] is recorded as “binds”.
Consider CGNKRTRGC [T7 phage displaying the LyP-1 peptide … (SEQ ID NO: 7)], for which the binding result in assay [6] was “binds”.
AKRGARSTA [T7 phage displaying the TT1 variant with cysteines replaced by alanines, … (SEQ ID NO: 2)]: the binding entry in assay [7] was “binds”.

B4: T7 phage displaying SMNEVRKR (SEQ ID NO: 192) (peptide)
peptide: SMNEVRKR
notes: as for B2
For the molecule B4, the binding result in assay [2] is recorded as “binds”.
As to CTRGSRSKC [T7 phage displaying … (SEQ ID NO: 177)], in assay [1], the binding result is “binds”.
Same read-out and setting: to CARGKRSLC [T7 phage displaying … (SEQ ID NO: 184)] belongs “binds”.

B5: T7 phage displaying SGVSRDR (SEQ ID NO: 191) (peptide)
peptide: SGVSRDR
notes: as for B2
In the case of B5, the binding entry in assay [2] is given as “binds”.

The values are drawn from patent US20210188909A1 (SANFORD BURNHAM PREBYS MEDICAL DISCOVERY INSTITUTE, published 2021).
